The target in assay [1] is T1, N-terminally triple-FLAG-tagged human PP5 (protein phosphatase-5) (human) (UniProt P53041).
T1 sequence: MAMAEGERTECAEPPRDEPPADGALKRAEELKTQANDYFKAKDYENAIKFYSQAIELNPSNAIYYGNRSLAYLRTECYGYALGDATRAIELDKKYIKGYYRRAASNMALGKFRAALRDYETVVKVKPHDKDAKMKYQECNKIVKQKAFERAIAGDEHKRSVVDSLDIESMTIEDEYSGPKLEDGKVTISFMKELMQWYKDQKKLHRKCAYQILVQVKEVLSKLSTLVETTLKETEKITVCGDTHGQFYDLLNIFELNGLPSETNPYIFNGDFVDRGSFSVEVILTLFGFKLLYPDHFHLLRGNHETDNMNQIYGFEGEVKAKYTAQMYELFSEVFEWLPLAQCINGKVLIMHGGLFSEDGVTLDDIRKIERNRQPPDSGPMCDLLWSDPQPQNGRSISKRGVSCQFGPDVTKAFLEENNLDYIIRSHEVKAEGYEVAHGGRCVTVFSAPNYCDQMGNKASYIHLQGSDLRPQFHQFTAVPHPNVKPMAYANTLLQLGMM
The assay can be described thus: affinity purification with mass spectrometry; triple-FLAG-tagged bait (BAG3 or PP5) overexpressed in HEK293 for 24 h; lysate (100 mM NaCl, 10 mM Tris, 0.1% IGEPAL, 1 mM EDTA, 1 mM EGTA, 20 nM Calyculin A, 1 mM DTT, 1 mM MnCl2) with anti-FLAG M2 magnetic beads 2 h at 4°C; in-gel digestion, LC-MS; triple-FLAG tag as control; enriched: more than fivefold, P ≤ 0.05 (rank sum), n = 4.

Protein sequences, listed by entry. Tags and fused reporters are not part of them. Lines headed by an entry give the natural chain unless they say otherwise; changes in a name come on top.
UniProt O95817: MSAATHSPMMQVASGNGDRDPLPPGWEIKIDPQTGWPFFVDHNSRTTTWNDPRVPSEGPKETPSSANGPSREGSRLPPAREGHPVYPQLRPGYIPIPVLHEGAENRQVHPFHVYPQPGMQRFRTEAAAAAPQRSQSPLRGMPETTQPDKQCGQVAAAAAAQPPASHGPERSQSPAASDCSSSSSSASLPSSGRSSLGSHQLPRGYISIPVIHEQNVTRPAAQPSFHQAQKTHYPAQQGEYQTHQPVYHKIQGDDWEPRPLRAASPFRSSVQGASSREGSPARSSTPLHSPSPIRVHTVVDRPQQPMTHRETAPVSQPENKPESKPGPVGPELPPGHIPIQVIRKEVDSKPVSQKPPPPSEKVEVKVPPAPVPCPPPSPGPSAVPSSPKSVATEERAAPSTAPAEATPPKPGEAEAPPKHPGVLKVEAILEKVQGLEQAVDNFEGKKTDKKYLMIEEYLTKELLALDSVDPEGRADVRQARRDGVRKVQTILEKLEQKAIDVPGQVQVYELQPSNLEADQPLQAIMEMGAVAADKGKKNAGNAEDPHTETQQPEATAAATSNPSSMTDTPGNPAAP
UniProt O95433: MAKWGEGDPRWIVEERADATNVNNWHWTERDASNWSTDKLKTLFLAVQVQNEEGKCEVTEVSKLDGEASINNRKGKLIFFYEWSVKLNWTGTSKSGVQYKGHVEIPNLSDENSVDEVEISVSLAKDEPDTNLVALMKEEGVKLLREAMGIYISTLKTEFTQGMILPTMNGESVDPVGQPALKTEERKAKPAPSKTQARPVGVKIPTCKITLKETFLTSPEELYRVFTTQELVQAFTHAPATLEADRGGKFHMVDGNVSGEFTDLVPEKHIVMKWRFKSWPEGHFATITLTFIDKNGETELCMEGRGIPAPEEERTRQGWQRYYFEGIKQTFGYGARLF

Assay [2] deals with FLAG-BAG3-S284A/T285A/S289A/S291A (human) (UniProt O95817). The assay can be described thus: affinity purification with mass spectrometry; FLAG-BAG3 wt, 4A or 4D overexpressed in HEK293, precipitated with anti-FLAG beads, on-bead tryptic digestion, LC-MS; PP5/BAG3 intensity ratios, n = 3.
Assay [3] has as its target FLAG-BAG3-S284D/T285D/S289D/S291D (human) (UniProt O95817). Described as above.

These are yes or no findings as the source states them, for the method shown. In cells and extracts the contact can be indirect. These calls come from enrichment with a bait or labelling near it, and not all partners need be listed. For part of these data: Where a sequence is shown, tags or fusion partners need not be part of it.

Regarding AHSA1 (from UniProt O95433 1-338), the binding entry in assay [1] is listed as “binds”.

Regarding “BAG3, endogenous (from UniProt O95817 1-575)”, the binding result in assay [1] was “binds”.

B1: Hsp90 co-chaperone Cdc37 (protein, UniProt Q16543 1-378)
chain: MVDYSVWDHIEVSDDEDETHPNIDTASLFRWRHQARVERMEQFQKEKEELDRGCRECKRKVAECQRKLKELEVAEGGKAELERLQAEAQQLRKEERSWEQKLEEMRKKEKSMPWNVDTLSKDGFSKSMVNTKPEKTEEDSEEVREQKHKTFVEKYEKQIKHFGMLRRWDDSQKYLSDNVHLVCEETANYLVIWCIDLEVEEKCALMEQVAHQTIVMQFILELAKSLKVDPRACFRQFFTKIKTADRQYMEGFNDELEAFKERVRGRAKLRIEKAMKEYEEEERKKRLGPGGLDPVEVYESLPEELQKCFDVKDVQMLQDAISKMDPTDAKYHMQRCIDSGLWVPNSKASEAKEGEEAGPGDPLLEAVPKTGDEKDVSV
As to B1, in assay [1], the binding entry is recorded as “binds”.

B2: protein phosphatase-5 (PP5), endogenous (enzyme, UniProt P53041 1-499)
chain: T1 sequence
Turning to B2, the binding result in assay [2] and in assay [3] was “binds” each time.

B3: CHORDC1 (protein, UniProt Q9UHD1 1-332)
chain: MALLCYNRGCGQRFDPETNSDDACTYHPGVPVFHDALKGWSCCKRRTTDFSDFLSIVGCTKGRHNSEKPPEPVKPEVKTTEKKELCELKPKFQEHIIQAPKPVEAIKRPSPDEPMTNLELKISASLKQALDKLKLSSGNEENKKEEDNDEIKIGTSCKNGGCSKTYQGLESLEEVCVYHSGVPIFHEGMKYWSCCRRKTSDFNTFLAQEGCTKGKHMWTKKDAGKKVVPCRHDWHQTGGEVTISVYAKNSLPELSRVEANSTLLNVHIVFEGEKEFDQNVKLWGVIDVKRSYVTMTATKIEITMRKAEPMQWASLELPAAKKQEKQKDATTD
B3: in assay [1], the binding entry was “binds”.

The values are drawn from paper PMC11576475.
